# From PubChem BioAssay AID504444 (National Center for Advancing Translational Sciences (NCATS), 2011)
# In all, about 360,000 compounds went through this assay and about 7,500 (2.1%) were called active. The inconclusive results got no clear call from the source; some entries with a clear call stand among them for comparison. Calls follow the shape of the dose curve; as a rule, active = well fitted inhibition curve with a large enough effect; inconclusive = small, poorly fitted or top-dose-only effect, or effect the other way; inactive = flat fitted curve, though single readings scatter. Potencies beside an inconclusive call are fits to weak or partial responses and may not hold up.
# Experiment: Nrf2 qHTS screen for inhibitors; also: nearly all actives have a fitted effect of over 60% in size
# Conditions: A549 ARE-Fluc reporter, luciferase luminescence, 18-24 h; activity change, negative = inhibition: at 46 µM (top of the series)
# How it was run: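 A549 ARE_Fluc cells (5000/well, 5% FBS OPTI-MEM) pre-incubated 2 h, then treated with compounds 18-24 h at 37C/5% CO2 in concentration-response. CellTiter-Fluor viability read first; BugLite luciferase luminescence after 15 min at room temperature gives Nrf2 activity.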
# % is scaled to controls: 0 for no effect and ±100 for the full control effect; potency is read from the fitted curve at half-maximal effect.
SMILES,Potency,"activity change, negative = inhibition"
CCOC(=O)c1[nH]c(C)c(C(=O)NCc2cccc(OC)c2)c1C,"inconclusive: 25.9 µM [falling, single point]",–
COc1ccccc1NS(=O)(=O)c1cccc(NC(=O)C2CC(=O)N(Cc3ccccc3)C2)c1 (stereo not given),"inconclusive: 23.1 µM [falling, partial curve, poor fit]",–
O=C(/C=C/c1ccc2ccccc2n1)N1CCN(S(=O)(=O)c2ccccc2F)CC1,–,inactive: 4.91%
O=C(N/N=C/c1ccc(-c2cccc([N+](=O)[O-])c2)o1)c1cccs1,"inconclusive: 4.11 µM [activator, full curve]",–
Cc1nc2c(-c3ccccc3)c(C)nn2c(C)c1CCC(=O)Nc1ccccc1F,"inconclusive: 29.1 µM [falling, single point]",–
CSc1ccccc1OCc1cc(C(=O)NCc2cccc(C)n2)no1,"inconclusive: 2.59 µM [activator, full curve]",–
O=C(Nc1ccc2c(c1)C(=O)N(CC1CCCO1)C2=O)c1cccc(Br)c1 (stereo not given),"inconclusive: 20.6 µM [falling, partial curve, poor fit]",–
O=c1c2ccccc2nnn1CCO,"inconclusive: 32.6 µM [falling, partial curve, poor fit]",–
C(=N\Nc1ncnc2sc3c(c12)CCC3)/c1ccncc1,"inconclusive: 8.2 µM [falling, partial curve]",–
Cc1ccc(-n2cc(CN3CCN(Cc4nccn4C)CC3)c(-c3cccc(C)c3)n2)cc1,"inconclusive: 32.6 µM [activator, partial curve, poor fit]",–
O=C(Cn1nc(CNc2ccc(Cl)cc2)[n+]2c1CCCCC2)c1ccc(Br)cc1,–,inactive: -3.5%
COC(=O)/C=C/c1ccc(-n2cncn2)cc1,"inconclusive: 29.1 µM [activator, single point]",–
Cc1ccc(NC(=O)c2c(O)c3ccccc3n(C)c2=O)nc1,"inconclusive: 4.61 µM [activator, partial curve, poor fit]",–
CN(CCOc1ccc(Cl)cc1)C(=O)CN1C(=O)NC2(CCCCC2)C1=O,"inconclusive: 13 µM [falling, partial curve, poor fit]",–
Cc1ccc(NC(=O)CSc2nc3ccc(NC(=O)COc4ccc(C)cc4)cc3s2)cc1,–,inactive: 5.54%
O=C(N/N=C/C=C/c1ccccc1)C1CC1(c1ccccc1)c1ccccc1 (stereo not given),"inconclusive: 29.1 µM [falling, single point]",–
COc1cc(NC(=S)Nc2ccccn2)cc(OC)c1,–,inactive: 10.9%
Cc1ccc(SCc2nc(-c3ccc(C(=O)Nc4cc(C)ccc4C)cc3)oc2C)cc1,active: 5.8 µM,–
Cc1ccc(-c2nn(CCC(=O)O)cc2/C=C\C(=O)c2ccc(Br)cc2)cc1,"inconclusive: 11.6 µM [falling, partial curve, poor fit]",–
Cc1c(C)n(CC(O)CN2CCN(C)CC2)c2ccccc12 (stereo not given),–,inactive: -19.3%
Cc1ccccc1C(=O)OCC(=O)NCc1ccco1,–,inactive: 14.9%
O=C(Nc1ccccc1)c1cn(CCBr)cn1,"inconclusive: 5.8 µM [activator, single point]",–

SMILES,Potency,"activity change, negative = inhibition"
O=C1CCCCC1(CCc1ccncc1)CCc1ccncc1,"inconclusive: 29.1 µM [falling, single point]",–
Cc1ccc(C)c(S(=O)(=O)Nc2ccccc2C(=O)Nc2cc(C)on2)c1,–,inactive: -23.1%
CC(C)C(OC(=O)Cn1nnc2ccccc21)C(=O)NC1CCCC1 (stereo not given),"inconclusive: 6.51 µM [activator, partial curve, poor fit]",–
Cc1ccc(C(=O)OCC(=O)Nc2ccccc2N2CCOCC2)cc1,"inconclusive: 11.6 µM [falling, partial curve, poor fit]",–
CCOc1ccc(-n2c(SCc3ccc(C(=O)OC)o3)nc3c(c2=O)SCC3)cc1,"inconclusive: 29.1 µM [falling, single point]",–
O=C(Nc1c(-c2ccccc2)nc2ccccn12)c1ccccc1F,"inconclusive: 0.0731 µM [falling, partial curve, poor fit]",–
COc1cccc(-c2csc(N3CCN(C(=O)Nc4ccc(Cl)cc4)CC3)n2)c1,active: 14.6 µM,–
C=CCNC(=O)c1ccc2c3n(nc2c1)-c1ccccc1CO3,"inconclusive: 0.82 µM [activator, partial curve]",–
Cc1ccc(-c2nc3n(n2)Cc2ccccc2-3)cc1,"inconclusive: 1.3 µM [activator, partial curve]",–
CCc1cccc(CC)c1NC(=O)COC(=O)C1(c2ccc(Cl)cc2)CCCC1,–,inactive: -6.73%
O=C(COC(=O)[C@@H]1CC(O)CN1S(=O)(=O)c1ccc2c(c1)OCCO2)NCc1ccc(F)cc1 (stereo not given in full),"inconclusive: 13 µM [activator, partial curve, poor fit]",–
O=C(OCC(=O)c1cccs1)c1ccccc1,"inconclusive: 7.31 µM [activator, full curve, poor fit]",–
CC(=O)c1ccc(N2CCN(C(=O)CCn3cnc4onc(-c5ccc(F)cc5)c4c3=O)CC2)cc1,"inconclusive: 3.66 µM [falling, partial curve, poor fit]",–
Cc1cc(C)cc(OCC(=O)Nc2ccncc2)c1,"inconclusive: 16.4 µM [falling, partial curve, poor fit]",–
COc1cc(OC)cc(-c2nc3ccccc3c(=O)n2OC(=O)c2ccc(C)c(C)c2)c1,"inconclusive: 29.1 µM [falling, single point]",–
COc1ccc(-c2cc(N)n(S(=O)(=O)c3ccc(C)cc3)n2)c(OC)c1,–,inactive: -3.6%
Cc1cc(C)nc(SCCCNCc2c(F)cccc2Cl)n1,"inconclusive: 16.4 µM [falling, partial curve, poor fit]",–
CC(=O)Oc1ccc2ccccc2c1C(NC(=O)Cc1ccccc1)c1ccc(Cl)cc1 (stereo not given),active: 20.6 µM,–
CCOc1ccccc1NC(=O)Nc1cc2c(cc1N1CCCCC1)n(CC)c(=O)n2CC,"inconclusive: 14.6 µM [falling, partial curve]",–
CCN(CC)C(=O)CSc1nnc2nnc3cc(C)ccc3n12,"inconclusive: 2.91 µM [falling, partial curve, poor fit]",–
CCCn1c(C(O)c2ccc(OC)c(OC)c2)nc2ccccc21 (stereo not given),"inconclusive: 29.1 µM [falling, single point]",–
Cc1cc(C)c(C)c(S(=O)(=O)ON2C(=O)c3ccccc3C2=O)c1C,–,inactive: 2.37%

SMILES,Potency,"activity change, negative = inhibition"
CN(C)c1ccc(C(=O)NCC(=O)OC(C(=O)Nc2cc(C(F)(F)F)ccc2Cl)c2ccccc2)cc1 (stereo not given),–,inactive: 6.05%
CCOc1ccccc1CNCc1c(C(=O)O)n(Cc2ccc(F)cc2)c2cc(C)ccc12,"inconclusive: 20.6 µM [falling, single point]",–
COc1cc(/C=C/C(=O)Nc2ccc(N3CCCCC3)c(S(=O)(=O)Nc3ccccc3Cl)c2)cc(OC)c1OC,"inconclusive: 2.06 µM [falling, partial curve, poor fit]",–
NS(=O)(=O)c1ccc(Nc2nc(-c3ccccc3)cs2)cc1,"inconclusive: 1.46 µM [falling, partial curve, poor fit]",–
Cc1nn(-c2ccccc2Cl)c(Cl)c1/C=N/Nc1nc2ccccc2s1,"inconclusive: 0.92 µM [falling, full curve, poor fit]",–
CCc1cc2c(cc3c(=O)n(CC(=O)NCc4cc(Br)ccc4OC)ncn32)s1,"inconclusive: 7.31 µM [activator, single point]",–
Cc1cccc(NC(=O)c2cc(S(=O)(=O)N3CCOCC3)cn2C)c1C,"inconclusive: 32.6 µM [falling, single point]",–
CC(C)(C)c1ccc(C(=O)N2CCCCCC2=O)cc1,active: 9.2 µM,–
COc1ccc(OC)c(NC(=O)Nc2cccc(Cn3cccn3)c2)c1,"inconclusive: 7.31 µM [falling, partial curve, poor fit]",–
O=C(COC(=O)c1c2c(nc3ccccc13)/C(=C/c1ccco1)CC2)NC1CCCC1,–,inactive: 5.49%
COc1ccccc1N(C1=NCCCS1)S(=O)(=O)c1ccc(C(C)(C)C)cc1,"inconclusive: 32.6 µM [falling, single point]",–
COc1cc(NC(=O)CSc2nccc(=O)[nH]2)c(C)cc1[N+](=O)[O-],"inconclusive: 10.3 µM [falling, partial curve, poor fit]",–
CC(Nc1nc(-c2ccccc2F)nc2ccccc12)c1ccccc1 (stereo not given),"inconclusive: 25.9 µM [falling, single point]",–
CCc1ccc(N(CC(=O)Nc2ccc(NC(C)=O)cc2)S(=O)(=O)c2ccccc2)cc1,"inconclusive: 29.1 µM [falling, single point]",–
CC(C(=O)NCCS(=O)(=O)c1ccc(Cl)cc1)S(=O)(=O)c1ccccc1 (stereo not given),–,inactive: -13%
COc1ccc(-n2nc(C(=O)NCC(=O)N3CCN(c4ccccc4F)CC3)c3ccccc3c2=O)cc1OC,"inconclusive: 6.51 µM [activator, single point]",–
COc1ccc(Nc2nc(N3CCCCC3)c3ccccc3n2)cc1,"inconclusive: 32.6 µM [falling, single point]",–
O=C(O)COc1ccc(Oc2ccccc2)cc1,"inconclusive: 2.91 µM [falling, single point]",–
CCN(C(=O)C1CCCN(c2ncnc3c2nc2n3CCCCC2)C1)c1cccc(C)c1 (stereo not given),–,inactive: -33.1%
COC1=C/C(=C/c2c(N)n3nc(-c4ccc(C)cc4)sc3nc2=O)C=CC1=O,"inconclusive: 7.31 µM [activator, partial curve]",–
COc1ccc(Cl)cc1NC(=O)CN(C)C(=O)c1sc2ccccc2c1Cl,"inconclusive: 29.1 µM [falling, single point]",–

# 17 structures from above, sorted by SMILES length, ascending.
SMILES,Potency,"activity change, negative = inhibition"
Cc1cc(C)cc(OCC(=O)Nc2ccncc2)c1,"inconclusive: 16.4 µM [falling, partial curve, poor fit]",–
O=C1CCCCC1(CCc1ccncc1)CCc1ccncc1,"inconclusive: 29.1 µM [falling, single point]",–
COc1ccc(Nc2nc(N3CCCCC3)c3ccccc3n2)cc1,"inconclusive: 32.6 µM [falling, single point]",–
CCCn1c(C(O)c2ccc(OC)c(OC)c2)nc2ccccc21 (stereo not given),"inconclusive: 29.1 µM [falling, single point]",–
CSc1ccccc1OCc1cc(C(=O)NCc2cccc(C)n2)no1,"inconclusive: 2.59 µM [activator, full curve]",–
CC(C)C(OC(=O)Cn1nnc2ccccc21)C(=O)NC1CCCC1 (stereo not given),"inconclusive: 6.51 µM [activator, partial curve, poor fit]",–
CCOC(=O)c1[nH]c(C)c(C(=O)NCc2cccc(OC)c2)c1C,"inconclusive: 25.9 µM [falling, single point]",–
Cc1ccc(C)c(S(=O)(=O)Nc2ccccc2C(=O)Nc2cc(C)on2)c1,–,inactive: -23.1%
CCc1cc2c(cc3c(=O)n(CC(=O)NCc4cc(Br)ccc4OC)ncn32)s1,"inconclusive: 7.31 µM [activator, single point]",–
CCOc1ccc(-n2c(SCc3ccc(C(=O)OC)o3)nc3c(c2=O)SCC3)cc1,"inconclusive: 29.1 µM [falling, single point]",–
Cc1ccc(SCc2nc(-c3ccc(C(=O)Nc4cc(C)ccc4C)cc3)oc2C)cc1,active: 5.8 µM,–
Cc1ccc(NC(=O)CSc2nc3ccc(NC(=O)COc4ccc(C)cc4)cc3s2)cc1,–,inactive: 5.54%
O=C(COC(=O)c1c2c(nc3ccccc13)/C(=C/c1ccco1)CC2)NC1CCCC1,–,inactive: 5.49%
COc1cc(OC)cc(-c2nc3ccccc3c(=O)n2OC(=O)c2ccc(C)c(C)c2)c1,"inconclusive: 29.1 µM [falling, single point]",–
COc1ccccc1NS(=O)(=O)c1cccc(NC(=O)C2CC(=O)N(Cc3ccccc3)C2)c1 (stereo not given),"inconclusive: 23.1 µM [falling, partial curve, poor fit]",–
CC(=O)c1ccc(N2CCN(C(=O)CCn3cnc4onc(-c5ccc(F)cc5)c4c3=O)CC2)cc1,"inconclusive: 3.66 µM [falling, partial curve, poor fit]",–
COc1ccc(-n2nc(C(=O)NCC(=O)N3CCN(c4ccccc4F)CC3)c3ccccc3c2=O)cc1OC,"inconclusive: 6.51 µM [activator, single point]",–
